Values quoted from earlier work as cited in US10864198B2, “Methods of preventing cardiovascular events in residual risk dyslipidemic populations” (Kowa Company, Ltd., priority 2016, dated 2020).
At least one structure is not confirmed: it was looked up by name or label, or the drawing left a doubt.

System: patients with type 2 diabetes mellitus
Settings: ACCORD, combination with a statin vs statin monotherapy; cited from earlier work

In the case of `CC(C)OC(=O)C(C)(C)Oc1ccc(C(=O)c2ccc(Cl)cc2)cc1` [Fenofibrate], the “primary endpoint or any secondary endpoint (nonfatal myocardial infarction, nonfatal stroke, death from cardiovascular causes)” value is given as “did not detect a significant treatment effect”.
